Measurements taken from paper PMC7031389.
These are yes or no findings as the source states them, for the method shown. For some of these results: In cells and extracts the contact can be indirect. Some entries that bind do so weakly or less than the wild type.

Protein sequences, listed by entry. Tags and fused reporters are not part of them.
UniProt Q8N884: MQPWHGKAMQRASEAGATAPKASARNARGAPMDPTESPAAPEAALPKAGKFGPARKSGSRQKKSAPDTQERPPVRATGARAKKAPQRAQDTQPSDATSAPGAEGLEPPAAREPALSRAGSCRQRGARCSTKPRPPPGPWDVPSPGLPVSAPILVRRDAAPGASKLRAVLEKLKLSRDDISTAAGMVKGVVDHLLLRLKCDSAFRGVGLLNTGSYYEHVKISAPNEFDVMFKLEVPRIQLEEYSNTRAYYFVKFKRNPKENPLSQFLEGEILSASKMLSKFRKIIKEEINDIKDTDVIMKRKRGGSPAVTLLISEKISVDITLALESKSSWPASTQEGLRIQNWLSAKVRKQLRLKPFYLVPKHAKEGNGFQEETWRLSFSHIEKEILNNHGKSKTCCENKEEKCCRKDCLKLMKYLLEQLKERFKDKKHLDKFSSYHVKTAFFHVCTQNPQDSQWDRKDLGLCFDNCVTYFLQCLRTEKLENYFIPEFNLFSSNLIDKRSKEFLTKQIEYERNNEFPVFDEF
UniProt P11387: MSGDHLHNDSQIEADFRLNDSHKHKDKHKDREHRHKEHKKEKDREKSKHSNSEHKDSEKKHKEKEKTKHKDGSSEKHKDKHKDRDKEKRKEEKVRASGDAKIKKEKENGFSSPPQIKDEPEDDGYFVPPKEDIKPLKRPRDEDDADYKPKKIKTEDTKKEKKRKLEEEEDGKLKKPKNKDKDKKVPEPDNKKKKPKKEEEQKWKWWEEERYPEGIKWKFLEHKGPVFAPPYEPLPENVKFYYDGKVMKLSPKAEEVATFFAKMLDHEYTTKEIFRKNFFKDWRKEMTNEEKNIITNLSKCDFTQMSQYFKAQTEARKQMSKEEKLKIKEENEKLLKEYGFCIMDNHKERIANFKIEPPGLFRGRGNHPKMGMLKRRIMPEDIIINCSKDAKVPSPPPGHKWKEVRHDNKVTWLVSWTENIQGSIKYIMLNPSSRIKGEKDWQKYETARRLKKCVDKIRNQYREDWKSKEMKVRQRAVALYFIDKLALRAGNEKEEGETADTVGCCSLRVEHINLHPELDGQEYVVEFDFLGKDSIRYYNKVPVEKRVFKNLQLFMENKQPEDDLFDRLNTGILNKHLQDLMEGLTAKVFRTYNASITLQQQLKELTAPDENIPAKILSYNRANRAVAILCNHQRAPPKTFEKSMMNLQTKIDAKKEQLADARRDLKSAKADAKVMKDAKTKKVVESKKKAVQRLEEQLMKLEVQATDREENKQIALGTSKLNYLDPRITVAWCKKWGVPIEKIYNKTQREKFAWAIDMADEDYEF

Experiments:
[1] = molecular target: GST-tagged cGAS (UniProt Q8N884); experiment: pull-down; GST or GST-tagged cGAS immobilized on glutathione-sepharose beads, incubated with His-tagged TOP1 at 4 °C for 16 h; washed three times with buffer including 150 mM NaCl; immunoblot; both purified
[2] = molecular target: Cyclic cGMP-AMP synthase (cGAS), endogenous in IMR90 cells (human (endogenous in IMR90)) (UniProt Q8N884); experiment: condition: only HMGB2 knockdown cells, DNA free co-IP lysates; co-IP; endogenous proteins in RAS-induced senescent IMR90 cells with HMGB2 knockdown; DNA free co-IP lysates (RIPA supernatant); immunoblot
[3] = molecular target: Cyclic cGMP-AMP synthase (cGAS), endogenous in IMR90 cells (human (endogenous in IMR90)) (UniProt Q8N884); experiment: co-IP; endogenous proteins in control and RAS-induced senescent IMR90 cells; RIPA lysate, supernatant incubated with antibody or isotype IgG (5 ug) at 4 °C overnight, protein A/G beads; immunoblot
[4] = molecular target: Cyclic cGMP-AMP synthase (cGAS), endogenous in IMR90 cells (human (endogenous in IMR90)) (UniProt Q8N884); experiment: co-IP; endogenous proteins in RAS-induced senescent IMR90 cells with HMGB2 knockdown; (ISD)2 45 bp dsDNA added to the lysate supernatant; immunoblot

Row | Substance | binding [1] | binding [2] | binding [3] | binding [4]
1 | Recombinant his-tagged TOP1 protein (from UniProt P11387 1-765) | binds |  |  | 
2 | Topoisomerase 1 (TOP1), endogenous in IMR90 cells (from UniProt P11387 1-765) |  | no binding | binds | binds
